Screen size: about 300,000 compounds; about 3,700 (1.2%) were called active. The shares of active, inactive and inconclusive entries below differ from those in the screen. Calls follow the shape of the full dose curve; tested in HEK293 cells. Potencies of inconclusive entries are doubtful fits and often do not repeat.
Assay: qHTS for Inhibitors of binding or entry into cells for Lassa Virus; also: nearly all actives have a fitted effect of over 50% in size
Conditions: Lassa virus pseudotype entry inhibition, cell reporter; series mostly up to 37.9 µM
Potency is read from the fitted curve at half-maximal effect.

Row | Compound | Potency
1 | Cc1ccc(-c2c(C)n3c4c(=O)n(C)c(=O)n(C)c4nc3n2-c2cccc(O)c2)cc1 | inconclusive: 2.24 µM [inhibitor, partial curve, poor fit]
2 | CC(=O)Nc1ccc(S(=O)(=O)N2CCN(C(=O)N3CCCCCC3)CC2)cc1 | inconclusive: 35.5 µM [inhibitor, single point]
3 | Cn1c(N)c(C(=O)COC(=O)CCOc2ccc(C(C)(C)C)cc2)c(=O)n(C)c1=O | inactive
4 | Cc1c(-c2ccc(Br)cc2)[n+](=O)c2c(n1[O-])CCCCC2 | inconclusive: 5.62 µM [inhibitor, single point]
5 | CCOc1ccc(C(=O)N/N=C/c2cccc3cccnc23)cc1 | inconclusive: 20 µM [inhibitor, partial curve]
6 | C[C@H](NC(=O)C1(c2ccccc2)CCN(C(=O)[C@H]2CSCN2C(=O)OC(C)(C)C)CC1)C(=O)O | inconclusive: 6.51 µM [inhibitor, single point]
7 | S=C(c1ccc(-c2cc(Cl)ccc2Cl)o1)N1CCOCC1 | inactive
8 | COc1cc(C(=O)Nc2ccc(S(=O)(=O)N(C)c3ccccc3)cc2)cc(OC)c1OC | inconclusive: 11.6 µM [inhibitor, partial curve, poor fit]
9 | CNC(=O)c1ccc(NC(=O)CC23CC4CC(CC(C4)C2)C3)cc1 | inconclusive: 1.58 µM [inhibitor, partial curve, poor fit]
10 | COc1ccc(OC2C(=O)N(c3ccc(C)c(C)c3)C2c2ccc(OC)c(OC)c2)cc1 (centres undefined) | inconclusive: 6.31 µM [inhibitor, partial curve]
11 | Clc1ccc(Cl)c(OCCCCN2CCNCC2)c1 | inconclusive: 35.5 µM [inhibitor, single point]
12 | Cc1c(C)n2c(SCC(=O)N3CCN(c4ccccc4)CC3)nnc2[nH]c1=O | inactive
13 | O=C(CCc1nc2ccccc2s1)c1ccccc1 | inactive
14 | O=C(CSc1ncccc1C(=O)O)c1ccc2ccccc2c1 | inconclusive: 8.2 µM [inhibitor, partial curve, poor fit]
15 | CCOC(=O)c1ccc(N2C(=O)CC(N3CCN(C(=O)c4ccco4)CC3)C2=O)cc1 (centres undefined) | inactive
16 | O=C(c1cc2ccccc2o1)c1cccs1 | inactive
17 | COc1ccc(CNC(=O)CCCc2nnc3n(CCC(C)C)c(=O)c4sccc4n23)cc1 | inactive
18 | CCOC(=O)N1CCN(C(=O)c2ccc3c(=O)n(CCc4ccc(OC)c(OC)c4)c(=O)[nH]c3c2)CC1 | inconclusive: 12.6 µM [inhibitor, partial curve, poor fit]
19 | NC(=O)c1cnn2c(-c3ccc(Cl)cc3Cl)ccnc12 | inconclusive: 10 µM [inhibitor, partial curve, poor fit]
20 | CCOc1ccc(-c2csc3ncn(-c4ccc(OC)cc4)c(=O)c23)cc1 | inconclusive: 0.891 µM [inhibitor, full curve, poor fit]
21 | O=C(Nc1cccc(Cl)c1)c1cc(-c2ccccc2)on1 | inactive
22 | CNc1ccc(/C=C(\C#N)C(=O)Nc2ccccn2)cc1[N+](=O)[O-] | inconclusive: 10 µM [activator, partial curve]

In a second layout: results already given
Row	Compound	Potency
9	CNC(=O)c1ccc(NC(=O)CC23CC4CC(CC(C4)C2)C3)cc1	inconclusive: 1.58 µM [inhibitor, partial curve, poor fit]
16	O=C(c1cc2ccccc2o1)c1cccs1	inactive
19	NC(=O)c1cnn2c(-c3ccc(Cl)cc3Cl)ccnc12	inconclusive: 10 µM [inhibitor, partial curve, poor fit]

(continued)

Row | Compound | Potency
23 | C/C(=N\NC(=O)c1ccoc1C)c1cccnc1 | inactive
24 | CCCCCSc1cc(OC)c(CCN)cc1OC | inconclusive: 35.5 µM [inhibitor, single point]
25 | CC(N=Cc1c(O)n(C2CC2)c(=S)[nH]c1=O)c1ccccc1 (centres undefined) | inconclusive: 0.631 µM [inhibitor, partial curve, poor fit]
26 | Cn1cnc(S(=O)(=O)Nc2ccccc2N2CCOCC2)c1 | inconclusive: 2.82 µM [activator, partial curve, poor fit]
27 | Cc1ccc(C)c(Cn2c3ccccc3c3cnn(CC(=O)NCCN4CCOCC4)c(=O)c32)c1 | inconclusive: 11.2 µM [inhibitor, single point]
28 | C/C(N)=C(/C#N)C(=O)CSc1nc2ccc(C)cc2[nH]1 | inconclusive: 25.9 µM [inhibitor, single point]
29 | CCOc1cc(C(=O)Nc2ccc(-c3nc4cc(Cl)ccc4o3)cc2)cc(OCC)c1OCC | inactive
30 | CC1CCCCN1C(=O)CSc1n[nH]c(-c2ccccc2)n1 (centres undefined) | inconclusive: 0.562 µM [inhibitor, full curve, poor fit]
31 | CCCCC[n+]1ccn(-c2nc3ccccc3nc2[N-]S(=O)(=O)c2ccccc2)c1 | inactive
32 | S=C(NCc1ccc(Cl)cc1Cl)NC1CCCCC1 | active: 8.91 µM
33 | CC(=O)c1c[nH]c(C(=O)Nc2ccc(N3CCCCCC3)cc2)c1 | inactive
34 | O=c1oc(-c2ccccc2)nc2sc3c(c12)CCC3 | inconclusive: 5.17 µM [activator, full curve, poor fit]
35 | COc1ccc2nc(N=NC3=C(O)CC(C)(C)CC3=O)sc2c1 | active: 14.6 µM
36 | CCOC(=O)Cc1csc(NC(=O)c2cnc3scc(C)n3c2=O)n1 | inconclusive: 0.461 µM [inhibitor, full curve, poor fit]
37 | O=C(NC(=S)Nc1ncccn1)c1ccc(Cl)cc1Cl | inactive
38 | CCOc1ccc(C(=O)Nc2onc3c2CCCC3)cc1 | inconclusive: 5.62 µM [inhibitor, partial curve]
39 | CCc1ccc(NC(=O)C(=O)c2ccccc2NC(C)=O)cc1 | inconclusive: 14.1 µM [inhibitor, single point]
40 | COCCN(C(=O)CSc1n[nH]c(-c2ccc(OC)cc2)n1)c1c(N)n(Cc2ccccc2)c(=O)[nH]c1=O | inactive
41 | N#Cc1ccccc1Cn1c(SCC(=O)Nc2ccc(F)cc2)nc2ccccc21 | inconclusive: 2.82 µM [inhibitor, partial curve, poor fit]
42 | CCOc1cc(/C=N/Nc2nnc(C)n2N)ccc1OC(C)=O | inconclusive: 20 µM [inhibitor, single point]
43 | O=C(NCc1ccc2c(c1)OCO2)C1CCN(c2ccc(S(=O)(=O)N3CCCC3)cc2)CC1 | inconclusive: 35.5 µM [inhibitor, single point]
44 | O=C(COc1ccc(-c2nnco2)cc1)N1CCN(S(=O)(=O)c2ccc3ccccc3c2)CC1 | inconclusive: 14.6 µM [inhibitor, partial curve, poor fit]
